Test results reported in PubChem BioAssay AID493205 (National Center for Advancing Translational Sciences (NCATS), 2011).
The shares of active, inactive and inconclusive entries below differ from those in the screen. Where the call is inconclusive, the potency comes from a doubtful curve fit. The source made the active and inactive calls. Calls come from the whole dose curve; as a rule, active = well fitted inhibition curve with a large enough effect; inconclusive = small, poorly fitted or top-dose-only effect, or effect the other way; inactive = no such curve, though single readings can be large or run the other way.

By UniProt entry, the sequences of proteins in these tests, tags left out. Where a name states a change or a piece, a line headed by the entry shows the natural chain unless it says otherwise.
UniProt Q9NR56: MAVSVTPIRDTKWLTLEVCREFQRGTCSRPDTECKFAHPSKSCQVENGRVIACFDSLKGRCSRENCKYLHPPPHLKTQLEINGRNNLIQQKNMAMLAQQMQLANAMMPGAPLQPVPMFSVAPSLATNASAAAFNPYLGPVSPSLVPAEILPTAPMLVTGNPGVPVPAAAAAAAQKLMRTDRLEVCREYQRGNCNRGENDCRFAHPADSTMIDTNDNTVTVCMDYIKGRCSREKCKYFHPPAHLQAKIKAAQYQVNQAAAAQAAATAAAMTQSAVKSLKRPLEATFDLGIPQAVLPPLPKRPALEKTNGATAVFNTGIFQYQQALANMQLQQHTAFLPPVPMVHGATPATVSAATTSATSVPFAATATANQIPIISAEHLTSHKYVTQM

Each compound was assayed against Muscleblind-like protein 1 (Homo sapiens) (UniProt Q9NR56) (assay: qHTS Assay for Inhibitors of MBNL1-poly(CUG) RNA binding: Initial hit validation in AlphaScreen assay for MBNL1-(CUG)12 binding). Conditions: AlphaScreen MBNL1-His / biotin-(CUG)12 binding; series mostly up to 57.7 µM.
Source text: NIH Chemical Genomics Center [NCGC] NIH Molecular Libraries Probe Production Centers Network [MLPCN] MLPCN Grant: R03 MH087421-01 Assay Submitter (PI): Charles Thornton NCGC Assay Overview: Expanded CTG repeats in the 3' untranslated region of the DM protein kinase (DMPK) gene causes type I myotonic dystrophy (DM1). DM1 is a multi-systemic disease with a prevalence of 1/7000. Clinical features include myotonia, progressive muscle weakness and wasting, cardiac arrhythmia, insulin resistance, hypersomnolence, cataracts, and other symptoms. The pathogenic effect of expanded CTG repeats stems from deleterious effects of the mutant transcript. CUGexp mRNA accumulates in nuclear foci and sequesters proteins of the muscleblind family, of which MBNL1 is the most common family member in skeletal muscles. The binding interaction between MBNL1 and CUGexp tracts leads to deregulation of alternative splicing and is therefore a key molecular step in the pathogenesis of DM1. To target this binding interaction, we optimized a protein-RNA binding assay in 1536-well format for identification of small molecule inhibitors of biotinylated (CUG)12 and his-tagged MBNL1 binding. This deposition presents the initial confirmation of hits from the primary screen in an orthogonal assay of binding using AlphaScreen.
NCGC Assay Protocol Summary: This is a proximity-based binding assay with MBNL1-His and Biotin-(CUG)12 RNA. Streptavidin conjugated donor beads capture biotin labels on the MBNL-(CUG)12 complexes and up on excitation, generate singlet oxygen. Luminescent signal is generated when the donor beads are in close proximity of the nickel-coated acceptor beads, captured by the His-tags. Data were normalized to the controls for basal activity (buffer only) and 100% activity (with MBNL1-(CUG)12). The AC50 values were determined from concentration-response data modeled with the standard Hill equation Assay buffer: 20mM HEPES, 110mM KCl, 10mM NaCl, 2mM MgCl2, 2mM CaCl2, 5mM DTT, 0.1% BSA, 0.05% Tween 20 1536-well assay protocol for the MBNL1-(CUG)12 binding assay: (1) Add 2 ul/well 20nM MBNL1-His, 20nM Biotin-(CUG)12 (2) Add 23 nL compounds in DMSO solution. The final titration was 92 nM to 58 uM. (3) Add 1 ul of Nickel-coated AlphaScreen acceptor beads (6.25 ng/ul final concentration) (4) Incubate 30 min at room temperature (5) Add 1 ul of Streptavidin-conjugated AlphaScreen donor beads (6.25 ng/ul final concentration) (6) Incubate 60 min at room temperature (7) Detect the assay plate in a EnVision plate reader (PerkinElmer) with AlphaScreen protocol Keywords: mytonic dystrophy type I, DM1, muscleblind like 1, MBNL1, CUG expansion, protein-RNA binding inhibitor, high throughput screening, MLSMR, MLSCN, NIH Roadmap, qHTS and NCGC

SMILES | Potency
O=C1c2ccccc2C(=O)C1C(=O)C(c1ccccc1)c1ccccc1 | inconclusive: 36.6 µM [inhibitor, partial curve, poor fit]
Cc1ccsc1C(=O)C1CCCN(Cc2ccc(-n3cccn3)cc2)C1 (centres undefined) | inconclusive: 65.1 µM [inhibitor, partial curve]
CN1C[C@H](CNC(=O)OCc2ccccc2)C[C@@H]2c3cccc4c3c(cn4C)C[C@H]21 | inconclusive: 35.5 µM [inhibitor, partial curve]
CCn1cc(CN2CCCC(C(=O)c3cccc(OC)c3)C2)c(C)n1 (centres undefined) | inactive
